Consider 112 substances from the supplement of paper PMC5949888.

Most values lie at the floor of the assay. Slopes are relative: functional sequences can read slightly below zero.

For the data set, the system named is Saccharomyces cerevisiae PS128 hsf1 delta, HSF1(1-493) fusion. The data set is described as follows: growth estimate (transactivation domain function in HSF1 fusion, heat-shock survival) (a.u. (slope of normalised read count over time)); higher = stronger growth at 37°C, i.e. more transactivation activity. As to conditions: library: random library. As for the experimental part: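 Random 60-nt DNA library encoding peptides of up to 20 aa, fused to the C-terminus of yeast HSF1 residues 1-493 (C-terminal TAD deleted) and expressed from the native HSF1 promoter on a CEN plasmid in hsf1-deleted S. cerevisiae PS128. Cells were selected at 37°C on -trp 5-FOA plates for 0, 2, 4, 6 and 8 days and amplicons were sequenced. Growth estimate is the slope of a robust linear fit of total-sum-normalised read counts (normalised to the first time point) over time, using at least 2 replicates. Sequences are classed functional (TAD activity) above a threshold of -0.13, set from stop-codon control sequences.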
On to AAEVRSGDPHNGGALTLWVI, for which the growth estimate was below -0.25.
On to KDRVCVVVCRSEEAF, for which the growth estimate was below -0.25.
Then KATRVRVVSVSGCSTLALFI, with below -0.25; and YSKRGEKVSVLRASSSWAAF, with below -0.25; and RACPLLRLKCAYRSVSRTLP, with below -0.25.
Then RGKMTTSLTLVAGVAGSCGR, with below -0.25; and EAFVLVSDCVPLWKSLDELC, with below -0.25.
In the case of GVERARSQSNNEFGPYRSVS, the growth estimate was below -0.25.
Regarding HTQPSCELLDRRLGDATANP, the growth estimate was below -0.25.
YWANWSEVSPIFWWEHPGGL: the growth estimate is -0.109.
With CILWERHPCCLAQYSTRVAK, the growth estimate is below -0.25.
For ELDF, the growth estimate was below -0.25.
As for CVKSTCLQVTPALVLRCLSR, the growth estimate is below -0.25.
Take GLATQVCPASFLGESGFVCI: the growth estimate is 0.525.
Then AYSGRQRKRFIIITWYRVSG, with below -0.25; and CGHVGLIIPRKR, with below -0.25.
Then HASEGLEDEVEDGCRHHNRL, with -0.16; and SSVTPEQWKRR, with below -0.25.
Take QPK: the growth estimate is below -0.25.
For the substance GYHDLLTVRPPPLSYLYGPE, the growth estimate was below -0.25.
The result for RVYGSGRDPSGWIVLYPECR reads below -0.25; that for LFLFEGLVHSKVGE, below -0.25; that for SGWSKRPRIQSASATPPLSA, below -0.25.
Then SCNIGGRSREASNE, with below -0.25.
Then PANRQRSCRCGSRPSLLGAG, with below -0.25; and ITFPRVTVHGGRVRGGTAHV, with below -0.25.
Turning to RHVRGYTACFRPFVTLGLRF, the growth estimate was below -0.25.
With MVCRETESGCRNVSKSASAP, the growth estimate is below -0.25.
With RAWQSTML, the growth estimate was below -0.25.
The result for IKGVGPLQAY reads below -0.25; that for TNGKLGHEVSILCWRDALGR, below -0.25.
As to ASVDLFSLLCIRR, the growth estimate is below -0.25.
Then VVEIPWLMLIAARVPLWING, with below -0.25; and LYDGRVCESHLGSHGSIFFT, with below -0.25.
The result for YVSSSRICAASEYKSYLGAL reads below -0.25; that for SSAPGRSRVRGSDQRPPLIC, below -0.25; that for AYGDWEENWAKVIV, -0.227.
Then FSR, with -0.246; and DNGAQFEEVNGAR, with below -0.25.
As to LCQKHAIQRGLR, the growth estimate is below -0.25.
As to NHHGSTSRWPIGPWLGQ, the growth estimate was below -0.25.
The result for PNSFAAIRVDVR reads below -0.25; that for SSVCWKSLNKERR, below -0.25; that for YYSHTTGVFT, below -0.25.
As to ASW, the growth estimate was below -0.25.
Then DPRVCVVGYACL, with below -0.25.
Then GCLSQICSGFYD, with below -0.25; and SNSTVL, with below -0.25; and GGRMFHHHQVLSSSTCGIHW, with -0.246.
With WHGQCGGVQLLARSILRPTS, the growth estimate is below -0.25.
Turning to KTRVSRFQCPARQVVRIFRG, the growth estimate was below -0.25.
For LVAAQFNSTQRALVGVSFTS, the growth estimate was below -0.25.
Then MINGIRSGLHMGPLFRVLSR, with below -0.25; and YVRPPFMWMPRAYTP, with below -0.25; and DRW, with below -0.25.
With GTKTPSTPLFWFIRLFHLLG, the growth estimate was below -0.25.
As to WLVVLDRRQSRDERVFRAHL, the growth estimate is -0.197.
Then ARLGVVSNLVIRTKDSSWLE, with below -0.25.
Then SRFQPR, with below -0.25.
Consider QVIYVVTSFALSRIAACYLP, for which the growth estimate is below -0.25.
As for TPSPIASDKVIVRTLHYPN, the growth estimate is below -0.25.
Turning to RSIKGLPLELQDGAPPCSFQ, the growth estimate is -0.239.
On to RLNEKLFDVD, for which the growth estimate was below -0.25.
For the substance YQYGLVQFH, the growth estimate was below -0.25.
Regarding MSLRGSPNGRTLV, the growth estimate is below -0.25.
The result for LGVGGLSLVIDRSGVNCVCE reads below -0.25; that for RRSWLLLGSMSSYILPQALC, below -0.25; that for TLRFNYVIFVNVSLCVTACH, below -0.25.
Regarding RVRAGSRNLPPLVRERIRDP, the growth estimate is below -0.25.
Then YSDGFWFRRQGRATDSPTEF, with below -0.25; and AAGYYIPGLLCRVPHGEHFP, with below -0.25.
CRTGPCHVYSSSSVSFCHAH: the growth estimate was below -0.25.
For the substance VINPSSYYPGKTRTFSSCVR, the growth estimate is below -0.25.
The result for GSTYDRRRRPLLQWICSRLL reads below -0.25; that for PPPLRFTDNVPPGGTRCPCP, below -0.25.
VPAKPLQKAGYPPCESTTTP: the growth estimate is below -0.25.
The result for TKKSMFLVPTRRRGPMFFGC reads below -0.25.
For FALRTAV, the growth estimate is below -0.25.
The result for NCLSRLCSRNDPLLRGSCGG reads below -0.25; that for SSLDSANTHSI, below -0.25.
With SIRILTARYHAVTGYSFPSM, the growth estimate is below -0.25.
As for AEGRINDSRVRESIGEHRMQ, the growth estimate was below -0.25.
With NERGRGSWFTLGVDMNLASE, the growth estimate is below -0.25.
Take RRLGSEMTFFPMSRLCHPKR: the growth estimate was below -0.25.
The result for GDTMRGIRVSRNFSLVLLTI reads below -0.25.
Then NLD, with below -0.25.
The result for SSGLQIRFF reads below -0.25.
Take AVE: the growth estimate was below -0.25.
DRTRVLDRGHLNILPECI: the growth estimate is below -0.25.
VGTFRGMFRVIGPMGCFLGV: the growth estimate is below -0.25.
For VKLSPSR, the growth estimate was -0.245.
Turning to LESSLTGPRPPVVMTLEDES, the growth estimate is below -0.25.
With PIFTLVLGIRLATNFIG, the growth estimate was below -0.25.
For the substance SMRYPVVWP, the growth estimate is below -0.25.
The result for ISGGGPKAPVAVNNGIVPFI reads below -0.25; that for LVTRLNHRFRDLVHRDFVAL, below -0.25; that for VNTWCTSF, below -0.25.
In the case of CGPQEVV, the growth estimate was below -0.25.
Then CCLAVCGTAIRLVSLSSDMP, with below -0.25.
As to LGWGPPGNKLT, the growth estimate is below -0.25.
As to VLRNRYAYFWT, the growth estimate was below -0.25.
The result for TLGMAKAVKSPAASCQLRSP reads below -0.25.
The result for RLRLHP reads below -0.25; that for GFVHTKGGVALSVLPGS, below -0.25; that for RCRGGGESRIWAVVRNGARG, below -0.25.
Take CPYRQRSTDLKRCAPPPMKA: the growth estimate was below -0.25.
As to STASPRRPRKYFDFVSPSEA, the growth estimate is below -0.25.
Then MGIKAAVRGRTRGA, with below -0.25.
Then VRRFYT, with below -0.25; and STYYVQKLKGGAGSSGGLVR, with below -0.25.
Then DQTRGLKSFILGTRIGLGYP, with below -0.25; and QGPDL, with -0.202.
